Experimental data published in paper PMC6430831.
Where a chain is given by its changes, count along the chain named. Results are given in words; binding and its absence hold for the method and conditions named. In cells and extracts the contact can be indirect. Some binding calls cover weakened binding; strength is not graded here. For some assays here: Where a sequence is shown, tags or fusion partners need not be part of it. Each block holds one molecule with its values, some of them ahead of it.

Chains of the proteins cited; added tags and fusions are not shown.
UniProt P56477: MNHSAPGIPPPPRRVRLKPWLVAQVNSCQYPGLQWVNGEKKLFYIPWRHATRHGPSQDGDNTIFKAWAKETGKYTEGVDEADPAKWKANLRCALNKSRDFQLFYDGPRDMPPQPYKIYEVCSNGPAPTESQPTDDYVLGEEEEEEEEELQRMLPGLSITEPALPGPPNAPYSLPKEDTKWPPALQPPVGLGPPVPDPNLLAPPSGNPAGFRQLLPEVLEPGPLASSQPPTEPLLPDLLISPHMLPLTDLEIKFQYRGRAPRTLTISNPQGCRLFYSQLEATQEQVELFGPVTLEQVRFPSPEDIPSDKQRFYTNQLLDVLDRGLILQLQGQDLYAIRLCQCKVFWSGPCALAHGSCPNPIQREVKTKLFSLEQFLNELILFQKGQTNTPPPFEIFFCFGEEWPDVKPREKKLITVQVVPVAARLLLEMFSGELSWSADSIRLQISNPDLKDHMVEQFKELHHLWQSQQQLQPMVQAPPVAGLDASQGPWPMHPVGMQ
UniProt Q13568: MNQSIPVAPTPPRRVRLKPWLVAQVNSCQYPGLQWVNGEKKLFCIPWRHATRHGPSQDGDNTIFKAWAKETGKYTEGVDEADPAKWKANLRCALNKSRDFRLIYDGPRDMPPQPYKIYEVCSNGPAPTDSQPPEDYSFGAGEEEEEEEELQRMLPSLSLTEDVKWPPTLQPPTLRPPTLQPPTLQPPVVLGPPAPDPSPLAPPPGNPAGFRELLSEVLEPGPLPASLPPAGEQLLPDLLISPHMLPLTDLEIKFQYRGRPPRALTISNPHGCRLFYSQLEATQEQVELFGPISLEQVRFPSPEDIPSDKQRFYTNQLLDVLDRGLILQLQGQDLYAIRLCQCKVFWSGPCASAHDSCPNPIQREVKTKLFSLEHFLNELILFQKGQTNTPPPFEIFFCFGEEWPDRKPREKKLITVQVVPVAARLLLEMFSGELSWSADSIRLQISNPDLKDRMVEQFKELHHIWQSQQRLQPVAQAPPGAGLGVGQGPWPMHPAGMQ
UniProt O43353: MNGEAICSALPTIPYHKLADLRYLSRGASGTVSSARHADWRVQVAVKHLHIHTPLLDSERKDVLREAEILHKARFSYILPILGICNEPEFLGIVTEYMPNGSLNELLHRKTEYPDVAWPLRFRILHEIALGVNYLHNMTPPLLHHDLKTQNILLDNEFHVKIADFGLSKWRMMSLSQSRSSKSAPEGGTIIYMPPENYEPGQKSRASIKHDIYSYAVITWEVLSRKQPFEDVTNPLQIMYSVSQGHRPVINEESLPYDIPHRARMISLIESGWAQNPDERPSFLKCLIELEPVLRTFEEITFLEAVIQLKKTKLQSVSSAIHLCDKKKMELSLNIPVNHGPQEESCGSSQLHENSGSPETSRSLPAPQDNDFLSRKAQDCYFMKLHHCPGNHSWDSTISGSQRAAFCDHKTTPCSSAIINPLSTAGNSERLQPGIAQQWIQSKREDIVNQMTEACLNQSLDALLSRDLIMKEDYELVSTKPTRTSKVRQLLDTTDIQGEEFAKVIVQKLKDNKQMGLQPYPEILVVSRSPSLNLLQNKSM

Legend:
[1] = target: T1, FLAG-tagged GEF-H1 (Human pCMV6-Entry-GEF-H1), wild type (human) (UniProt Q92974); assay: co-IP; HEK293T cells transfected with the indicated plasmids (GEF-H1 WT or variants with IRF5, IKKε, IKKβ; with or without RIPK2 or NOD2); precipitated with anti-GEF-H1, protein G agarose; lysis buffer 1% NP-40, 20 mM Tris-HCl pH 7.4, 150 mM NaCl; partners detected by western blot
T1 sequence: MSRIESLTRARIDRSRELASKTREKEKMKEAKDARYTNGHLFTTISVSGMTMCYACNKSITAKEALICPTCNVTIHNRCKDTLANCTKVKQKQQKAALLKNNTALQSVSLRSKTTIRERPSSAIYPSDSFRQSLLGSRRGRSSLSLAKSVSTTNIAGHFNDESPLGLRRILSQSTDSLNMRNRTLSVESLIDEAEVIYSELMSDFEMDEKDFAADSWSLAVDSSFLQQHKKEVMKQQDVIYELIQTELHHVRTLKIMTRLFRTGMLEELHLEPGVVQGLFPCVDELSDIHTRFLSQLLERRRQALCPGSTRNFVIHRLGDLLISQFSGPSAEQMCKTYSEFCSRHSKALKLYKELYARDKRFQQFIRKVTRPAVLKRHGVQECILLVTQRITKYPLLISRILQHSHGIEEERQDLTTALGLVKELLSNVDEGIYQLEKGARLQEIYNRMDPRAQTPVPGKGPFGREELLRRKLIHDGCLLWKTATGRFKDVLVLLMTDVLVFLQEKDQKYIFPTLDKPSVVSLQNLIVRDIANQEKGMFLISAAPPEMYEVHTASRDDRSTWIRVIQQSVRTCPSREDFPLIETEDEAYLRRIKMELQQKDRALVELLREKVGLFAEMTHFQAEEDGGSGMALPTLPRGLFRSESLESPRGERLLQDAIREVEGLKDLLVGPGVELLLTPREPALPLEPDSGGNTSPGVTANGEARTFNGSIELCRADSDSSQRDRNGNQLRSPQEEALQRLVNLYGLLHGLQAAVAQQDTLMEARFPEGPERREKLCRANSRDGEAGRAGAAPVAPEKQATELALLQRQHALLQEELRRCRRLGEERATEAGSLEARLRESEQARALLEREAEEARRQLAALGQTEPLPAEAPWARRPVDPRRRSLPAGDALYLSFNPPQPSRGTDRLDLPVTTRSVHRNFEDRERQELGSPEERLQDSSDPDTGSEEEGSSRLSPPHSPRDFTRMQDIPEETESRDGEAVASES

[2] = target: T2, GEF-H1 (S886A) variant (human) (UniProt Q92974); assay: as above
T2 sequence: T1 sequence with S886A

[3] = target: T3, GEF-H1 double-mutant S324A/S886A (human) (UniProt Q92974); assay: as above
T3 sequence: T1 sequence with S324A, S886A

[4] = target: interferon regulatory factor 5 (IRF5), mouse, endogenous (mouse (endogenous in BMDMs)) (UniProt P56477); assay: co-IP; endogenous proteins in lysates of mouse BMDMs (WT, Arhgef2-/- as control), with or without N-glycolyl-MDP; precipitated with anti-IRF5 or control IgG, protein G agarose; lysis buffer 1% NP-40, 20 mM Tris-HCl pH 7.4, 150 mM NaCl; blot for GEF-H1

binding [1]: binds | binding [2]: binds | binding [3]: binds
Molecule: human IRF5 (pcDNA3-huIRF5-GFP) (from UniProt Q13568 1-498)

binding [1]: binds
Molecule: human RIPK2 (pcDNA3-huRipK2-HA) (from UniProt O43353 1-540)

binding [4]: binds
B1: guanine nucleotide exchange factor-H1 (GEF-H1), mouse, endogenous (protein, UniProt Q60875 1-985)
chain: MSRIESLTRARIDRSKEQATKTREKEKMKEAKDARYTNGHLFTTISVSGMTMCYACNKSITAKEALICPTCNVTIHNRCKDTLANCTKVKQKQQKAALLRNNTALQSVSLRSKTTTRERPTSAIYPSDSFRQSLLGSRRGLSSLSLAKSVSTTNIAGHFNDESPLGLRQILSQSTDSLNMRNRTLSVESLIDEGVEVFYNELMSDFEMDEKDFEADSWSLAVDSSFLQQHKKEVMKKQDVIYELIQTELHHVRTLKIMTRLFRTGMLEELQMEPEVVQGLFPCVDELSDIHTRFLNQLLERRRQALCPGSTRNFVIHRLGDLLISQFSGSNAEQMRKTYSEFCSRHTKALKLYKELYARDKRFQQFIRKMTRSAVLKRHGVQECILLVTQRITKYPVLINRILQNSHGVEEEYQDLASALGLVKELLSNVDQDVHELEKEARLQEIYNRMDPRAQTPVPGKGPFGRDELLRRKLIHEGCLLWKTATGRFKDVLLLLMTDVLVFLQEKDQKYIFTSLDKPSVVSLQNLIVRDIANQAKGMFLISSGPPEMYEVHAASRDDRTTWIRVIQQSVRLCPSREDFPLIETEDKAYLRRIKTKLQQKNQALVELLQKNVELFAEMVHFQALKAGFVGMPPPALPRGLFRLESFESLRGERLLKDALREVEGLKDLLLGPCVDLPMTSREPALPLDSDSGSCPGVTANGEARTFNGSIELCRADSDSSQKDRNGNQLRSPQEEVLQPLINLYGLLHGLQAVVVQQERLMEALFPEGPERWEKLSRANSRDGEAGRAAVASVTPEKQATELALLQRQHTLLQEELRRCQRLGEERATEAGSLEARLRESEQARALLEREAEEIRRQLAALGQNEPLPAEAPWARRPLDPRRRSLPAGDALYLSFNPPQPSRGHDRLDLPVTVRSLHRPFDDREAQELGSPEDRLQDSSDPDTGSEEEVSSRLSPPHSPRDFTRMQDIPEETESRDGEPTASES
